Experimental data reported in PubChem BioAssay AID1671190 (National Center for Advancing Translational Sciences (NCATS), 2021).
Where “and” joins values, the source holds several entries; their conditions need not be identical. Equal entries are not always repeated. In all, about 580,000 compounds went through this assay and about 6,100 (1.1%) were called active. Inconclusive means that the source gave no clear call. Such entries were picked first, then a sample of the others. The call rests on the fitted dose curve; in most records, active means well fitted inhibition curve with a large enough effect; inconclusive means small, poorly fitted or top-dose-only effect, or another doubt; inactive means no such curve, though single readings can be large or run the other way. Potencies of inconclusive entries are doubtful fits and often do not repeat.

By UniProt entry, the sequences of proteins in these tests, tags left out. Where a name states a change or a piece, a line headed by the entry shows the natural chain unless it says otherwise.
UniProt P18054: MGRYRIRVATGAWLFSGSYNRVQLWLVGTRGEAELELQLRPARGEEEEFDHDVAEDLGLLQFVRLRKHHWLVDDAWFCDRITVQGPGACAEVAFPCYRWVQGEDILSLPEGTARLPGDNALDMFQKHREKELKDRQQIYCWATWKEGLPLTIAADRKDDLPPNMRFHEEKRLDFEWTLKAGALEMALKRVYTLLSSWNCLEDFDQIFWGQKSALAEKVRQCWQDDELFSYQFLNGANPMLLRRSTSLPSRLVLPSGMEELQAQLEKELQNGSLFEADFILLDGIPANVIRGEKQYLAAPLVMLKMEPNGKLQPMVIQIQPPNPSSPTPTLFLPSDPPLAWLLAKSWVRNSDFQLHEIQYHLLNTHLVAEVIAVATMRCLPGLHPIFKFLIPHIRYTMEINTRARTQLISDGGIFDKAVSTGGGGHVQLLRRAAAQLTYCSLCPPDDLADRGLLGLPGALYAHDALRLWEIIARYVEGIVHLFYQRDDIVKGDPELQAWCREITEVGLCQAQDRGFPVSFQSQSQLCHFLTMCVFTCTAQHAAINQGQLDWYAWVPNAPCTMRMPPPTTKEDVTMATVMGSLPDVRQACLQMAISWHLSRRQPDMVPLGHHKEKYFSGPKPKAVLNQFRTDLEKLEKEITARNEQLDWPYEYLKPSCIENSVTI

Molecular target: Polyunsaturated fatty acid lipoxygenase ALOX12 (Homo sapiens) (UniProt P18054)
Experiment: Primary qHTS assay for inhibitors of human arachidonate 12S-lipoxygenase (ALOX12): Round 2
Conditions: purified 12hLO, xylenol orange hydroperoxide absorbance; activity change, negative = inhibition: at 108 µM (top of the series) unless noted
Procedure, shortened: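 Hydroperoxide product was detected by ferrous iron/xylenol orange as the 573 to 405 nm absorbance ratio. Arachidonic acid at 40 uM (final) was turned over for 30 min at room temperature by 150 nM human 12hLO, pH 7.0 Hepes buffer, after 15 min compound preincubation.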
On the % scale 0 is the no-effect control and ±100 the full control effect; potency means the concentration at half of the fitted maximal effect.

Row | SMILES | Potency | activity change, negative = inhibition
1 | Cn1c(-c2ccc3c(c2)OCO3)cnc1NCc1ccccc1 | inconclusive: 1.26 µM [inhibitor, full curve] | 
2 | Cc1cccc(C)c1-n1nnnc1C1(C)CCC(=O)N1C1CCN(Cc2ccccc2)CC1 (stereo not given) | inconclusive: 22.4 µM [inhibitor, partial curve, poor fit] | 
3 | C/C(=N\O)c1cccc(Br)c1 | inconclusive: 4.47 µM [inhibitor, partial curve, poor fit] | 
4 | CC(C)CCN1CC2(Cc3ccccc3NC2=O)C1 | inconclusive: 7.94 µM [inhibitor, single point] | 
5 | O=S(=O)([N-]c1nc2ccccc2nc1-n1cc[n+](Cc2ccccc2)c1)c1ccc(Br)cc1 | inactive | 
6 | COc1ccc(NC(=O)COc2ccc(N(C)S(=O)(=O)c3ccc(Cl)cc3)cc2)cc1OC | inactive | 
7 | O=C(O)CSc1cc(C(=O)c2ccccc2O)cn2c(=O)c3c(-c4ccccc4)csc3nc12 | inconclusive: 50.1 µM [inhibitor, partial curve, poor fit] | 
8 | O=C(Nc1ccc(OCc2cccc(F)c2)c(Cl)c1)c1ccncc1 | inactive | 
9 | Cc1cc(C(=O)NC2CCCc3c2[nH]c2ccccc32)c2c(C)noc2n1 (stereo not given) | inconclusive: 56.2 µM [inhibitor, single point] | 
10 | Cc1cccc(OC(C)C(=O)Nc2nonc2-c2ccc(Br)cc2)c1C (stereo not given) | inactive | 
11 | CC1CCc2sc(N)c(C#N)c2C1 (stereo not given) | inconclusive: 44.7 µM [inhibitor, partial curve, poor fit] | 
12 | CN1CCC(N2CCN(C3CN(C4CCCC4)S(=O)(=O)C3)CC2)CC1 (stereo not given) | inconclusive: 112 µM [inhibitor, single point] | 
13 | CCc1ccccc1Nc1ncnc2ccccc12 | inactive | 
14 | N#C/C(C(=O)NCc1ccccc1)=C1/N=C(NC(=O)c2cccs2)c2ccccc21 | inactive | 
15 | Cc1cccc(N2C(=O)CSC23C(=O)N(CC(=O)Nc2cccc(Cl)c2)c2ccccc23)c1 (stereo not given) | inconclusive: 44.7 µM [inhibitor, partial curve, poor fit] | 
16 | COC1=C/C(=C/c2c(N)n3cc(C)sc3nc2=O)C=CC1=O | inconclusive: 0.891 µM [inhibitor, full curve, poor fit] | 
17 | COc1ccc(OC)c(C2CCCN2Cc2nc(-c3ccccc3Cl)no2)c1 (stereo not given) | inactive | 
18 | O=C(O)c1ccc(CSC(F)F)o1 | inconclusive: 50.1 µM [inhibitor, single point] | 
19 | NC(=O)c1cc(Br)cc(C2CCCCC2)c1O | inactive | 
20 | COc1cc(-c2n[nH]c3ccnc(-c4cccc(OC(F)(F)F)c4)c23)cc(OC)c1OC | inconclusive: 126 µM [inhibitor, single point] | 
21 | CC(C)c1ccc(NC(=O)CN(C)C2=NS(=O)(=O)c3ccccc32)cc1 | inconclusive: 2 µM [inhibitor, full curve, poor fit] | 
22 | S=C(NCC(c1ccccc1)c1ccccc1)Nc1ccc(Cl)cc1 | inconclusive: 126 µM [inhibitor, partial curve, poor fit] | 
23 | O=C(Nc1ccc(Br)cc1)c1cccn1-c1ncc(C(F)(F)F)cc1Cl | inconclusive: 12.6 µM [inhibitor, full curve, poor fit] | 
24 | COc1ccccc1-c1n[nH]c(=S)n1N | active: 14.1 µM | 

Row | SMILES | Potency | activity change, negative = inhibition
25 | Cc1ccc(N(CC(=O)NC2CCCCC2)C(=O)CNC(=O)c2ccco2)cc1C | inactive | 
26 | COc1ccccc1CCN1COc2c(cc3c(C)c(C)c(=O)oc3c2C)C1 |  | inconclusive: -37.4% [inhibitor]
27 | COc1ccc(-n2ccn(CC(=O)Nc3ccc4c(c3)OCO4)c2=O)cc1 | inactive | 
28 | C[C@@H](CN1C(=O)C(=O)NC[C@@H]1C)NC(=O)CC12CC3CC(CC(C3)C1)C2 | inconclusive: 44.7 µM [inhibitor, partial curve, poor fit] | 
29 | O=C1NCc2ccccc2CC12CCN(Cc1cccc(Br)c1)C2 (stereo not given) | inconclusive: 44.7 µM [inhibitor, partial curve, poor fit] | 
30 | COc1ccccc1C(C)N(C)C(=O)CCn1ccc2ccccc21 (stereo not given) | inconclusive: 112 µM [inhibitor, partial curve, poor fit] | 
31 | CCC(C)c1ccccc1N1CC(C(=O)Nc2ccc(C)c(S(=O)(=O)N3CCOCC3)c2)CC1=O (stereo not given) | inconclusive: 141 µM [inhibitor, single point] | 
32 | O=C(NCc1ccco1)C(c1cccs1)N(C(=O)C1COc2ccccc2O1)c1cccc(O)c1 (stereo not given) | inconclusive: 39.8 µM [inhibitor, partial curve, poor fit] | 
33 | C/C=C/Cn1c(SCCC)nc2c1c(=O)[nH]c(=O)n2C | inconclusive: 31.6 µM [inhibitor, partial curve, poor fit] | 
34 | Fc1ccc(CNCc2ccc(-c3ccccc3F)o2)cc1 | inactive | 
35 | Cc1ccc(C(=O)C(OC(=O)c2sccc2C)c2ccc(C)cc2)cc1 (stereo not given) | inconclusive: 126 µM [inhibitor, partial curve, poor fit] | 
36 | Cc1ccc(C(=O)C=CC=Cc2ccccc2)cc1 | inactive | 
37 | Cn1nnc(NC(=S)NC(=O)c2ccc3ccccc3c2)n1 | active: 11.2 µM | 
38 | CCCN(CC1CC1)c1cc2c(c3c1ccn3C)C1CCC2O1 (stereo not given) | inconclusive: 39.8 µM [inhibitor, partial curve, poor fit] | 
39 | CC(=O)Nc1cccc(-c2cc(-c3ccncc3)c3cncn3c2)c1 | inconclusive: 14.1 µM [inhibitor, full curve] | 
40 | COc1ccc(C(=O)OCC(=O)NC2CCCCCCC2)cc1OC | inconclusive: 89.1 µM [inhibitor, single point] | 
41 | Cc1c(NC(=O)c2ccc(-c3cccc([N+](=O)[O-])c3)o2)cccc1-c1nc2cc(Cl)ccc2o1 | inconclusive: 126 µM [inhibitor, partial curve, poor fit] | 
42 | COc1ccc(-c2nn(-c3ccccc3)cc2C2CC(c3cccs3)=NN2C(=O)CCCC(=O)O)cc1 (stereo not given) | inactive | 
43 | CCc1ccc(/C=C2/C(=O)N(c3ccccc3)C(=S)N2CC(=O)OC)s1 | inconclusive: 11.2 µM [inhibitor, full curve] | 
44 | CC(=O)c1sc2nc(-c3cccs3)ccc2c1N | inconclusive: 17.8 µM [inhibitor, full curve, poor fit] | 
45 | Cc1nn(C)c(C(=O)Nc2c(C)nn(C)c2C)c1Br | inactive | 
46 | COc1cccc(C2CCCN2Cc2nc(CC3CC3)no2)c1 (stereo not given) | inconclusive: 141 µM [inhibitor, single point] | 
47 | CCCS(=O)(=O)NCc1ccc(C(=O)O)cc1 | inactive | 
48 | COc1cc(-c2nc3cc(NC(=O)c4ccc(Cl)cc4)ccc3o2)cc(OC)c1OC | inconclusive: 100 µM [inhibitor, single point] | 

Row | SMILES | Potency | activity change, negative = inhibition
49 | CCN(CC)C(=O)c1cccc(-c2csc(C(O)c3ccco3)n2)c1 (stereo not given) | inconclusive: 7.94 µM [inhibitor, full curve, poor fit] | 
50 | CC(C)NS(=O)(=O)c1cccc2nsnc12 | inactive | 
51 | COCCn1c(SCc2c(F)cccc2Cl)nc2c1c(=O)[nH]c(=O)n2C | inconclusive: 50.1 µM [inhibitor, partial curve, poor fit] and inconclusive: 44.7 µM [inhibitor, partial curve, poor fit] | 
52 | CSc1ccc(/C=C(/C#N)C(=O)NC2CCCC2)cc1 | inactive | 
53 | CCOC(=O)c1ccc(Oc2c(C(F)(F)F)oc3cc(OC(=O)c4ccc(F)cc4)ccc3c2=O)cc1 | inconclusive: 0.708 µM [inhibitor, full curve, poor fit] | 
54 | COC(=O)c1ccc(/C=C2\SC(=S)N(CCCC(=O)N3CCOCC3)C2=O)cc1 | inactive | 
55 | CC1CCCN(C(=O)CSc2nnc3n(C4CCCC4)c(=O)c4ccccc4n23)C1 (stereo not given) | inactive | 
56 | O=C(O)c1ccc(N=Cc2nc(-c3ccco3)oc2O)cc1 | inconclusive: 20 µM [inhibitor, partial curve, poor fit] | 
57 | CSc1ccc(C(C)NC(=O)Cc2cccc(F)c2)cc1 (stereo not given) | inconclusive: 112 µM [inhibitor, single point] | 
58 | OCCNCc1cccc(-c2ccccc2)c1O | inconclusive: 112 µM [inhibitor, partial curve, poor fit] | 
59 | CC(NC(=O)C1CC1)C(c1cccs1)N1CCN(c2ccccc2)CC1 (stereo not given) | inactive | 
60 | CCN(CCCNC(=O)C1CCC(=O)N1Cc1ccc(C)cc1)c1cccc(C)c1 (stereo not given) | inactive | 
61 | CCCCC(=O)NC1CC(=O)N(c2ccc3c(c2)OCCO3)C1 (stereo not given) | inactive | 
62 | COc1cc(/C=N/Nc2ccc(C(F)(F)F)cn2)cc(OC)c1O | inconclusive: 0.708 µM [inhibitor, full curve, poor fit] | 
63 | CS(=O)(=O)N1CCC(OC2CCN(C(=O)Nc3cccc(F)c3)CC2)CC1 | inactive | 
64 | O=C(Nc1ccc(S(=O)(=O)N2CCCC2)cc1)c1c(F)cccc1F | inconclusive: 50.1 µM [inhibitor, partial curve, poor fit] | 
65 | CN(Cc1ccc(-c2ccc(Cl)cc2)o1)C(=O)CNC(=O)c1ccccc1 | inconclusive: 89.1 µM [inhibitor, single point] | 
66 | COc1ccc2oc(=O)c(C(=O)N3CCN(C(=O)c4ccco4)CC3)cc2c1 | inactive | 
67 | COC(=O)C[N+]1(CC=C(C)C)CCCCC1 | inactive | 
68 | O=C1CCC2(C(=O)NCC3CC3)CCCC=C2N1c1ccccc1 (stereo not given) | inconclusive: 12.6 µM [inhibitor, partial curve] | 
69 | CC(C)NC(=O)Cn1nnc(-c2ccccc2)c1COc1ccc2ccccc2c1 | inactive | 
70 | CCOc1ccc(CCNC(=O)c2cn(C)c3ccc(S(=O)(=O)N4CCCCC4)cc3c2=O)cc1OCC | inconclusive: 50.1 µM [inhibitor, partial curve, poor fit] | 

For convenience, five of the compounds above:
Row | SMILES | Potency | activity change, negative = inhibition
66 | COc1ccc2oc(=O)c(C(=O)N3CCN(C(=O)c4ccco4)CC3)cc2c1 | inactive | 
67 | COC(=O)C[N+]1(CC=C(C)C)CCCCC1 | inactive | 
68 | O=C1CCC2(C(=O)NCC3CC3)CCCC=C2N1c1ccccc1 (stereo not given) | inconclusive: 12.6 µM [inhibitor, partial curve] | 
69 | CC(C)NC(=O)Cn1nnc(-c2ccccc2)c1COc1ccc2ccccc2c1 | inactive | 
70 | CCOc1ccc(CCNC(=O)c2cn(C)c3ccc(S(=O)(=O)N4CCCCC4)cc3c2=O)cc1OCC | inconclusive: 50.1 µM [inhibitor, partial curve, poor fit] | 
